Measurements as given in PubChem BioAssay AID504847 (National Center for Advancing Translational Sciences (NCATS), 2011).
“And” between values parts separate entries of the source, which are not always exact repeats. Identical values can stand only once. Out of some 400,000 compounds screened, about 3,700 (0.93%) were called active. The inconclusive results got no clear call from the source; some entries with a clear call stand among them for comparison. The call rests on the fitted dose curve; in most records, active means well fitted inhibition curve with a large enough effect; inconclusive means small, poorly fitted or top-dose-only effect, or another doubt; inactive means no such curve, though single readings can be large or run the other way. Potencies of inconclusive entries are doubtful fits and often do not repeat.

Amino acid sequences for entries named in this document (tags omitted).
UniProt P11473, whole entry, looked up: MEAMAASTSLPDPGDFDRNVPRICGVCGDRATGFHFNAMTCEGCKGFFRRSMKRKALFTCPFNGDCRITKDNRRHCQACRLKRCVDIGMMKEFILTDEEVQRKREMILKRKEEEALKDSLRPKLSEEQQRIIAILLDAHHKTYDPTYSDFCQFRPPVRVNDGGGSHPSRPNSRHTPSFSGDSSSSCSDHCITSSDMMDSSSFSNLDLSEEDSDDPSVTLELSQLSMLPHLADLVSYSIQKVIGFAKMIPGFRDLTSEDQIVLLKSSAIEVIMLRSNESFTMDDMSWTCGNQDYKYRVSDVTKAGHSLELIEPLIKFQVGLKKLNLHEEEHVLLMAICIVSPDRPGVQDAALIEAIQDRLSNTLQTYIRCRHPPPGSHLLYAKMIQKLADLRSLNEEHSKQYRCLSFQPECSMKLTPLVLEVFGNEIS

molecular target: Vitamin D3 receptor (Homo sapiens) (UniProt P11473); assay: Inhibitors of the vitamin D receptor (VDR): qHTS; conditions: VDR-SRC2-3 peptide fluorescence polarization, 2 h; max response, negative = inhibition: hits give low values
Excerpt: The vitamin D receptor (VDR) is a ligand-activated transcription factor and is partially responsible for the regulation of the endocrine system. This includes the transcriptional regulation of genes involved in the production of the parathyroid hormone (PTH) and the regulation of the blood calcium level. High levels of PHT can cause hypercalcemia in the case of primary and tertiary hyperparathyroidism. The VDR-mediated gene regulation, activated by its ligand 1,25-dihydroxyvitamin D3 (1,25-(OH)2D3), is governed by the recruitment of coactivators. Our hypothesis is that small molecules, with the ability to inhibit the interaction between VDR and certain coactivators, are able to selectively modulate VDR-mediated transcription. Our long term objective is the application these VDR-coactivator inhibitors to study the role of VDR-coactivator binding for specific VDR regulated genes. Ultimately, these molecules can be developed into new treatments for hypercalcemic hyperparathyroidism. No small molecule or non-peptide inhibitors are known for the VDR-coactivator interaction.
In a collaboration between the University of Wisconsin, Milwaukee and the NIH Chemical Genomics Center (NCGC) a HTS-compatible enzymatic assay was developed. The assay uses fluorescence polarization as its read-out to measure the inhibition between VDR and coregulator peptide SRC2-3 exerted by small molecules. This assay was used to screen the NIH Molecular Libraries Small Molecule Repository (MLSMR).
NIH Chemical Genomics Center [NCGC]
NIH Molecular Libraries Probe Centers Network [MLPCN]
Assay Submitter (PI): Alexander Arnold, University of Wilwaukee
Both solutions are kept at 4 deg C and protected from light and dispensed using a Kalypsys dispenser. Then 23nl of compounds and controls are added with Kalypsys pintool. […] Plate is centrifuged at 1000 RPM for 15 seconds to remove any residual bubbles. The plate is then incubate at ambient room temperature for 2 hours.
On the % scale 0 is the no-effect control and ±100 the full control effect; potency means the concentration at half of the fitted maximal effect.

Structure (SMILES)	Potency	max response, negative = inhibition
Nc1ccc(Oc2ncccn2)cc1	inconclusive: 89.1 µM [inhibitor, partial curve, poor fit]	
CCOc1ccc(NCc2nnc(SCc3ccccc3Cl)n2-c2ccccc2)cc1		inactive: -20.2%
O=C(CN(Cc1ccccc1)C(=O)CSc1nnc(COc2ccccc2)o1)NC1CCCC1		inactive: -1.39%
c1ccc(-c2cccc(N3CCCC4(CCNCC4)C3)c2)cc1	active: 50.1 µM	
O=C(Oc1ccccc1)N1CCC[C@@]2(CCN(c3ccccc3)C2)C1	active: 35.5 µM	
O=[N+]([O-])c1ccc(NNC(=S)Nc2ccc(F)cc2)cc1	inconclusive: 50.1 µM [inhibitor, partial curve, poor fit]	
O=C(O)CN1C(=O)c2cccc3c(Br)ccc1c23	inconclusive: 1.78 µM [inhibitor, partial curve, poor fit]	
N=c1n(Cc2ccccc2)c2ccccc2n1Cc1ccccc1		inactive: -11.8%
COc1ccc(C2=NN(C(=O)c3ccco3)C(c3ccco3)C2)cc1OC (stereo unspecified)		inactive: -0.457%
O=C(NCc1cccnc1)c1ccc([N+](=O)[O-])o1		inactive: -10.7%
Cc1cccc(CNc2ncncc2-c2ccc3c(c2)OCO3)c1	inconclusive: 14.1 µM [inhibitor, partial curve, poor fit]	
Fc1ccc(-n2cc(-c3ccccc3)c3c(=S)nc[nH]c32)cc1	inconclusive: 100 µM [inhibitor, partial curve, poor fit]	
CC(=O)N1CCN(c2nc(N)c(C#N)c(CC#N)c2C#N)CC1	inconclusive: 39.8 µM [inhibitor, single point]	
CC1(C)C(=O)C=CC(=O)C(C)(C)C(=O)C=CC(=O)C(C)(C)C2=CC=C(O2)C(C)(C)C(=O)C=CC1=O	inconclusive: 79.4 µM [inhibitor, single point]	
COC(=O)c1c(OC)cc2c(c1C)Oc1c(Cl)c(OC(C)=O)c(Cl)c(C)c1C(=O)O2	inconclusive: 22.4 µM [inhibitor, partial curve]	
CC(=O)Nc1ccc(NC(=O)C(=O)N/N=C/c2cccnc2)cc1	inconclusive: 89.1 µM [inhibitor, single point]	
CCn1cc(C(=O)N2CCN(c3ccccc3)CC2)c(=O)c2cc(S(=O)(=O)N(C)C)ccc21	inconclusive: 89.1 µM [inhibitor, single point]	
COCCn1c(=O)c(-c2ccc(OC)cc2)nc2cnc(OC)nc21		inactive: 2.83%
COc1ccc(OC)c(N(CC(=O)Nc2ccc3c(c2)OCO3)S(=O)(=O)c2ccccc2)c1		inactive: -0.929%
CCOC(=O)c1ccc2ncc(C(=O)OCC)c(Nc3ccc(N4CCOCC4)cc3)c2c1		inactive: -2.15%
Cc1cc(C)cc(NC(=O)CSc2ccc(-c3cccs3)nn2)c1		inactive: -10.1% and inactive: 7.67%
CC(=O)N(C(C)=O)N1C(=O)C2C3c4ccccc4C(c4ccccc43)C2C1=O (stereo unspecified)	active: 35.5 µM	

Structure (SMILES)	Potency	max response, negative = inhibition
Cc1ccc(-c2cc(-c3ccccc3)c(C#N)c(N)n2)o1	inconclusive: 39.8 µM [inhibitor, single point]	
COc1ccc(OCC(O)Cn2c(=N)n(CCN3CCCCC3)c3ccccc32)cc1 (stereo unspecified)		inactive: -10.9%
O=[N+]([O-])c1c(Nc2ccccn2)cc(Cl)c2nonc12	inconclusive: 20 µM [inhibitor, partial curve]	
COc1ccc(CC(CC(=O)O)C(=O)Nc2ccc(Cl)c(Cl)c2)cc1 (stereo unspecified)	inconclusive: 31.6 µM [inhibitor, partial curve]	
Cc1cc(NC(=O)CSc2ncc(C(=O)O)n2-c2ccc(F)cc2)no1		inactive: 10.8%
CC(C)(C)OC(=O)N1CC=C2C(C#N)=C(N)C(C#N)(C#N)[C@H](c3cccnc3)[C@H]2C1	inconclusive: 79.4 µM [inhibitor, single point]	
N/C(=N\O)c1ccc(NC(=O)c2ccc(Br)o2)cc1	inconclusive: 20 µM [inhibitor, partial curve]	
N#Cc1ccc(/C=C/C(=O)c2cccnc2)cc1	active: 11.2 µM	
CC(=O)Nc1ccc(S(=O)(=O)Nc2nnc(CC(C)(C)C)s2)cc1	inconclusive: 70.8 µM [inhibitor, partial curve, poor fit]	
Cc1nn2c(COc3ccc(NC(=O)C(C)C)cc3)nnc2c2ccccc12	inconclusive: 100 µM [inhibitor, single point]	
CS(=O)(=O)c1ncc(Cl)c(C(=O)Nc2ccc3ccccc3c2)n1	active: 12.6 µM	
CCc1nnc(NC(=O)CSc2ccc(-c3cccs3)nn2)s1		inactive: -3.68%
COC(=O)CSc1ncnc2c1sc1nc3c(cc12)COC(C)(C)C3	inconclusive: 70.8 µM [inhibitor, partial curve]	
CCN1C(=O)/C(=C\c2ccncc2)SC1=Nc1ccc(C)c(C)c1	inconclusive: 79.4 µM [inhibitor, single point]	
CCOc1cc(/C=C2/SC(=S)N(CC(=O)O)C2=O)ccc1OC(=O)c1cccs1	inconclusive: 39.8 µM [inhibitor, single point]	
NCCNc1ccc(C(=O)N2c3ccccc3Sc3ccccc32)cc1[N+](=O)[O-]	inconclusive: 89.1 µM [inhibitor, single point]	
NC(=O)Cn1ccc(O)c(Cc2ccc(Cl)cc2Cl)c1=O		inactive: -7.61%
Cc1ccc(S(=O)(=O)N2CCN(c3nc(-c4ncco4)nc4ccccc34)CC2)cc1	inconclusive: 100 µM [inhibitor, partial curve, poor fit]	
CCC1(c2ccc(Cl)cc2)NC(=S)N(c2ccccc2)N1 (stereo unspecified)	inconclusive: 50.1 µM [inhibitor, partial curve, poor fit]	
CC(C)N(C(=O)[C@H]1C[C@H](CC(=O)NC(C)(C)C)C(=O)N2CCc3c([nH]c4cc(-c5ccco5)ccc34)[C@]12C)C(C)C	inconclusive: 89.1 µM [inhibitor, single point]	
CCCCN(C)C(=O)CSc1c2c(nc3ccc(Cl)cc13)CCCC2	inconclusive: 56.2 µM [inhibitor, partial curve, poor fit]	
Cc1cccc2sc(NC(=O)Cn3cccc3)nc12		inactive: -5.31%

Structure (SMILES)	Potency	max response, negative = inhibition
COC1=C2C[C@@H](C)C[C@H](OC)[C@H](O)[C@@H](C)/C=C(\C)[C@H](OC(N)=O)[C@@H](OC)/C=C\C=C(/C)C(=O)NC(=CC1=O)C2=O	inconclusive: 79.4 µM [inhibitor, single point]	
O=C(/C=C/c1ccc(Br)o1)NC(c1ccccc1)c1ccccc1	inconclusive: 89.1 µM [inhibitor, single point]	
OCCN1CCN(CC(O)COCCOc2ccc(Br)cc2)CC1 (stereo unspecified)	active: 17.8 µM	
COc1cccc(CNc2ncn[nH]2)c1OCc1ccc(F)cc1		inactive: -1.19%
CCOc1cc(/C=C2/C(=N)N3C(=NC2=O)SN=C3S(=O)(=O)CC)ccc1OC(=O)c1ccco1	active: 89.1 µM	
COc1ccc(NC(=O)c2ccc(-c3ccccc3Cl)o2)cc1		inactive: -3.84%
COCC(=O)N1CCC[C@@]2(CCN(Cc3cc(C(F)(F)F)cc(C(F)(F)F)c3)C2)C1	inconclusive: 44.7 µM [inhibitor, partial curve, poor fit]	
COc1ccc2c(c1)O[C@H](c1ccc3c(c1)OCO3)[C@@H](OC(=O)NCc1ccco1)C2=O	inconclusive: 56.2 µM [inhibitor, partial curve, poor fit]	
COc1ccc(NC(=O)CCS(=O)(=O)c2nc(-c3ccc4c(c3)OCO4)cc(C(F)(F)F)n2)cc1OC	inconclusive: 56.2 µM [inhibitor, partial curve, poor fit]	
Cc1cccc(C(=O)N2[C@@H](C(C)C)COc3cc(Br)ccc3S2(=O)=O)c1	inconclusive: 79.4 µM [inhibitor, single point]	
NC(=O)C1(Nc2ccc(-c3ccc(Br)cc3)cc2)CCCC1		inactive: -13.8%
O=C(N/N=C\CCc1ccccc1)c1ccco1	inconclusive: 31.6 µM [inhibitor, partial curve, poor fit]	
COc1ccc(NC2=CC(c3ccccc3)N(c3ccc(OC)cc3)C2=O)cc1 (stereo unspecified)	inconclusive: 56.2 µM [inhibitor, partial curve, poor fit]	
Cc1cc(C)nc(SCC(=O)NC2=NN=C(c3ccc(Br)cc3)CS2)n1	active: 44.7 µM	
CC(C)OC(=O)c1cc2c(ccn2-c2ccc(F)cc2)n1CC(=O)N1CCN(C(=O)c2ccco2)CC1	inconclusive: 89.1 µM [inhibitor, single point]	
Cc1nc2ccccc2c(=O)n1NS(C)(=O)=O		inactive: -1.82%
Cn1c(=O)c(=O)n(C)c2cc(NS(=O)(=O)c3ccc(Br)cc3)c(Cl)cc21		inactive: -0.355%
O=C(Nc1cccc(-c2csc(Nc3ccc(Cl)cc3)n2)c1)c1cc([N+](=O)[O-])cc(C(F)(F)F)c1		inactive: -23.2%
O=C(CSc1nc2ccccc2s1)Nc1cc(S(=O)(=O)N2CCOCC2)ccc1O	inconclusive: 79.4 µM [inhibitor, single point]	
CCc1ccccc1NC(=O)c1cc(S(=O)(=O)N2CCCC2)c[nH]1	inconclusive: 100 µM [inhibitor, partial curve, poor fit]	
CCCc1nc(SCC(=O)c2ccc(F)cc2)c2ccccc2n1	active: 89.1 µM	
O=C(NC(Cc1ccccc1)C(=O)O)OCc1ccccc1 (stereo unspecified)		inactive: 21.2%
